Data taken from ChEMBL document CHEMBL3988442, “University of Dundee, Small-Polar-MMV Screening Library” (2021).

Protein sequences, listed by entry. Tags and fused reporters are not part of them. Residues count along the entry.
UniProt Q4DA54, 1-478: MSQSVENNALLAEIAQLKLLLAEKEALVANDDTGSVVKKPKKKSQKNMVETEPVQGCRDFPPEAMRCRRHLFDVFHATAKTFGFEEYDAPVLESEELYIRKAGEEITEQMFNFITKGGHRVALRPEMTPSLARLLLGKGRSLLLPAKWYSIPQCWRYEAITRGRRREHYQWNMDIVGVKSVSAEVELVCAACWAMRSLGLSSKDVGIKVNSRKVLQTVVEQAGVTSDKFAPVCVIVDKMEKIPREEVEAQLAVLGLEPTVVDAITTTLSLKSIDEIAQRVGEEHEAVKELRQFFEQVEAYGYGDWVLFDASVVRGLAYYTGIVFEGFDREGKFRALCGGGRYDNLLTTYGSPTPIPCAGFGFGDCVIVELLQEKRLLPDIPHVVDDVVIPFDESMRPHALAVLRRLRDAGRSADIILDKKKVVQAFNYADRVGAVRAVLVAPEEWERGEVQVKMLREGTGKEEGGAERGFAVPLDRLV
UniProt P9WFT3, whole entry: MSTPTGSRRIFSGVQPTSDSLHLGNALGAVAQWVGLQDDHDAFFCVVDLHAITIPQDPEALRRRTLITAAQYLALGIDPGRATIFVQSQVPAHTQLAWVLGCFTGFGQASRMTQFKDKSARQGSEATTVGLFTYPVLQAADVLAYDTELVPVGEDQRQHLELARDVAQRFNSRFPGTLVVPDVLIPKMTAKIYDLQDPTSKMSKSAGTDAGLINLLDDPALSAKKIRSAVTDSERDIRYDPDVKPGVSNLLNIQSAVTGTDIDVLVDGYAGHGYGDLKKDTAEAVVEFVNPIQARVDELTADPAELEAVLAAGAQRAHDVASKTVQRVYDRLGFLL
UniProt I6X8D2, whole entry: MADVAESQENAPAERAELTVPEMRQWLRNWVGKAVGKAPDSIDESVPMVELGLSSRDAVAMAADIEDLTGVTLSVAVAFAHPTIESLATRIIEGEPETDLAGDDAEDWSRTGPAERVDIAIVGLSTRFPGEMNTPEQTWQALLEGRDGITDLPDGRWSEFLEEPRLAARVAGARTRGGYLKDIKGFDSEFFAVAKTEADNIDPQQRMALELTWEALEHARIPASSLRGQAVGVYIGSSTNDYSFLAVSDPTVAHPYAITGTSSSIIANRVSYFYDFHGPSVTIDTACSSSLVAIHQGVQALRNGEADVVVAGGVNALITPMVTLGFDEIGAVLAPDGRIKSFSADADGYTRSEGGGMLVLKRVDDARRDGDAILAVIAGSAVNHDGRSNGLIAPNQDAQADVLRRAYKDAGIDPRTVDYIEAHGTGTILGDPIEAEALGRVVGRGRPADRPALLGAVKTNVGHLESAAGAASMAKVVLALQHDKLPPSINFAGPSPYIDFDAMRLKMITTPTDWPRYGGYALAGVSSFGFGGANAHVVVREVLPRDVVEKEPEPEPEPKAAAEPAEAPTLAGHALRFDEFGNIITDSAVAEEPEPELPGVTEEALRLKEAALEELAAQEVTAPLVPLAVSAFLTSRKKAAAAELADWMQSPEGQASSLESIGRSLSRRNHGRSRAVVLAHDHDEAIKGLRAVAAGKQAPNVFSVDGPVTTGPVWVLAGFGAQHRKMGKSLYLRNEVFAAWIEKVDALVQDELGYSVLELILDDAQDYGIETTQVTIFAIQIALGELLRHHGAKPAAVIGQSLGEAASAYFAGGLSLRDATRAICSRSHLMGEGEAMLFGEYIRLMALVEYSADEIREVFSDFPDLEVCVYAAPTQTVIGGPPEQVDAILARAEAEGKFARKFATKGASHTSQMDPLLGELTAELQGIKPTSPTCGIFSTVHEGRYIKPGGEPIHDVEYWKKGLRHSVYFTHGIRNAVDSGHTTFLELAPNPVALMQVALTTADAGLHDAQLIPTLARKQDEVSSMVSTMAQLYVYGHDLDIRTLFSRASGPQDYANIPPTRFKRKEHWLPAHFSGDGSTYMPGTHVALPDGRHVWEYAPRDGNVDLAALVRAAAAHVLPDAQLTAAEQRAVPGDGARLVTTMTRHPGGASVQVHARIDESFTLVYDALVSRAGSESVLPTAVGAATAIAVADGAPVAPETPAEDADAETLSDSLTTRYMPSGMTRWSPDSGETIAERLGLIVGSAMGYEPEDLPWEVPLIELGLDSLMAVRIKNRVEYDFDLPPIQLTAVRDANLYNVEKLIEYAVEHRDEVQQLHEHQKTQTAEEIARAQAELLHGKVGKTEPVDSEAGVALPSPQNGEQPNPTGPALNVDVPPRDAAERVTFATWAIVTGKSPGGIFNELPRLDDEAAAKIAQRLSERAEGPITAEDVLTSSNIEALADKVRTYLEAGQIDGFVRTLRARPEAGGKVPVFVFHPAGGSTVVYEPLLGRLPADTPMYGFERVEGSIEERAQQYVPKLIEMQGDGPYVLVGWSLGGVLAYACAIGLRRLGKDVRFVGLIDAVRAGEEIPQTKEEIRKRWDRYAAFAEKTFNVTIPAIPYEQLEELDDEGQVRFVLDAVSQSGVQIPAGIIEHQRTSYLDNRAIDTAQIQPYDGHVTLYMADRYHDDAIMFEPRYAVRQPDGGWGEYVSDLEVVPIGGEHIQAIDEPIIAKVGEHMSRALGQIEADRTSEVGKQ
UniProt Q8IDJ8, 1-583: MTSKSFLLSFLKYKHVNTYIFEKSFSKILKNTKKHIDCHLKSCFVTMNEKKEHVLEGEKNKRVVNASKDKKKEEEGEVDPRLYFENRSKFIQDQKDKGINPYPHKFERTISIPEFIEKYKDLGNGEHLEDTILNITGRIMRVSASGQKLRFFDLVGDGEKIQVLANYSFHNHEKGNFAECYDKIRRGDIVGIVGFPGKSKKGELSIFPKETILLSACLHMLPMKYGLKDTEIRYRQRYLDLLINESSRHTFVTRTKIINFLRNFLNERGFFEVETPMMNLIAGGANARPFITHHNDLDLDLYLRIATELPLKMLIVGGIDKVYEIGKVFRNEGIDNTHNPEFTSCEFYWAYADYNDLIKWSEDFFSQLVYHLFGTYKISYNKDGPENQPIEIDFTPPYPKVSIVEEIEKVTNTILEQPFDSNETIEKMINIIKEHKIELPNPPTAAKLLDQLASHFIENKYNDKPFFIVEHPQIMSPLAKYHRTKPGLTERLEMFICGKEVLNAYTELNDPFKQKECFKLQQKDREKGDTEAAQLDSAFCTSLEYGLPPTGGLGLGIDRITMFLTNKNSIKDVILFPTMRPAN

TcHisRS: 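Enzyme assay of histidyl-tRNA synthetase; the read-out is not stated. Target: Histidine-tRNA ligase, Trypanosoma cruzi CL Brener (UniProt Q4DA54). Tested at 30 µM. Direction is inferred from retests: higher values go with stronger inhibition. Size under these conditions: about 69,000 compounds, about 31 of them at 50% or above in at least one test.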
MtTrpRS: 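Enzyme assay of tryptophanyl-tRNA synthetase; the read-out is not stated. Target: Tryptophan-tRNA ligase, Mycobacterium tuberculosis (UniProt P9WFT3). Tested at 10 µM. Direction is not recorded; retested compounds ran higher, which suggests that high means inhibition. Of about 65,000 compounds tested this way, about 64 (0.098%) reached 50% or more in at least one test.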
Pks13 thioesterase: 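Enzyme assay of the thioesterase domain of polyketide synthase 13; the read-out is not stated. Target: Polyketide synthase Pks13, Mycobacterium tuberculosis (UniProt I6X8D2). Tested at 30 µM. Higher reads as stronger inhibition (inferred from which compounds were picked for retests). About 67,000 compounds were tested under these conditions; 0.46% (about 300) showed 50% or more at least once.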
PfKRS1: 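Lysine-tRNA ligase, Plasmodium falciparum 3D7 (UniProt Q8IDJ8). Enzyme assay of the cytosolic lysyl-tRNA synthetase in 384-well plates, read by luminescence. Compounds at 30 µM. Higher reads as stronger inhibition, judged from the few compounds that gave an IC50. About 69,000 compounds were tested under these conditions; 0.071% (about 49) showed 50% or more at least once.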
Toxoplasma: 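Assay of Toxoplasma gondii numbers, read through their beta-galactosidase reporter with a colour substrate. Tested at 10 µM. Higher reads as fewer parasites (inferred from which compounds were picked for retests). Size under these conditions: about 67,000 compounds, about 260 of them at 50% or above in at least one test.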

Each number is a percent effect as filed.
How 0% and 100% were set is not recorded. Most values in the screen are low, and negative values occur.
This is an unselected part of the compounds tested.
A dash means the value is not listed here; it may have been measured.

structure,TcHisRS,MtTrpRS,Pks13 thioesterase,PfKRS1,Toxoplasma
COc1ccc(CN(C)c2nccc(-c3cn(C)nc3C)n2)cc1,19.54%,2.058%,-17.11%,-1.886%,-
Cc1ccc(CN(CCCn2ccnc2)Cc2c[nH]cn2)s1,-0.5405%,2.425%,-80.4%,5.879%,-
Cn1cc(CCNC(=O)C2(c3cccc(Cl)c3)CC2)cn1,4.124%,-2.096%,-29.51%,2.983%,17.1%
CCN(CC)C(=O)N1CCN(Cc2cnc(C)nc2)[C@H]2CS(=O)(=O)C[C@H]21,10.89%,4.502%,-7.226%,10.42%,-
CCn1c(C)nnc1SCCNc1cc(OC)ncn1,9.231%,7.789%,-25.6%,4.916%,3.755%
[H][C@]12CCN(Cc3cnn(C)c3)[C@@]1([H])C[C@@H](C(=O)N1CCOCC1)O2,-,-,-,-,-3.626%
CC(C)C(=O)N1CC2(CCN(CC(C)(C)C)CC2)C1.O=C(O)C(F)(F)F,-,-,-,-,-8.233%
C=C(C)COc1cccc(CN(CC)Cc2noc(C)n2)c1,0%,-1.053%,1.307%,2.474%,3.767%
Cc1ccc(C(N)=O)cc1NCCOc1cccc(C#N)c1,10.64%,1.547%,-22.91%,6.677%,-6.325%
Cc1cn2c(n1)CCC(NC(=O)c1c[nH]c(C)n1)C2 (stereo not shown),1.132%,3.632%,-10.26%,4.845%,6.653%
O=C(O)[C@@H]1CN(Cc2ccc3nsnc3c2)C[C@H]1c1cccnc1,4.459%,-0.3027%,-29.92%,-0.8863%,-0.1079%
Cc1ccc(-c2cc(CN(CC(N)=O)CC(C)C)on2)cc1,13.58%,0.4112%,3.254%,5.035%,17.33%
CCN1CC(CN(C)Cc2nc(-c3cccc(C)c3)oc2C)CC1=O (stereo not shown),9%,2.056%,3.187%,-0.7997%,3.499%
Cc1nc(N(C)C)nc(C)c1NS(=O)(=O)c1ccc(OC(F)(F)F)cc1,10%,6.135%,24.44%,1.834%,26.54%
O=C(O)C1(Cc2cccc(Cl)c2)CCCN(c2ncnc3[nH]ccc23)C1 (stereo not shown),5.579%,1.586%,-21.25%,5.392%,6.868%
COc1ccc(C(=O)N2CCCCC2c2nc(C)cs2)nn1 (stereo not shown),-0.7634%,2.958%,-38.72%,-4.162%,3.812%
O=C(NCCc1ccncc1)c1cccnc1OCC(F)(F)F,1.136%,-,14.29%,3.816%,15.19%
O=C(O)CC(CC(=O)NCCc1cccs1)c1cccs1 (stereo not shown),3.636%,6.922%,-21.76%,1.349%,1.707%
Cc1ccnc(NC(=O)c2ccc(Br)o2)c1,5.952%,-17.16%,-2.615%,-2.509%,1.169%
CCN1CCN(c2ccc(CNC(=O)c3sccc3C)cn2)CC1,5.65%,-5.304%,-2.341%,2.207%,0.5392%
CCS(=O)(=O)CCNC(=O)NC(C)c1cc(C)sc1C (stereo not shown),5.288%,1.039%,8.353%,-1.645%,-5.988%
CN(CCSc1ccccc1)C(=O)C(c1cccnc1)N1CCOCC1 (stereo not shown),-2.041%,-0.9382%,-24.88%,-4.692%,-8.914%
COCC1CN(c2ccc3c(Cl)ccnc3c2F)CCO1 (stereo not shown),6.579%,12.38%,-4.06%,-6.336%,0.1142%
CC(C)n1nc(CN2CCCC2=O)c2c1CN(C(=O)c1ccno1)C2,0%,-,-23.85%,5.552%,3.334%
Cn1nccc1C(=O)N1CCCC1c1ccc(C(=O)N2CCOCC2)s1 (stereo not shown),5.435%,-1.784%,-,3.271%,-2.203%
CC(C)N1CCC(CNC(=O)CCc2cc(F)ccc2F)C1 (stereo not shown),4.819%,-1.591%,2.584%,1.915%,-7.735%
CN(C)C(=O)CN1C[C@H]2CCN(Cc3ccccc3)CC[C@H]2S1(=O)=O,1.075%,0.5578%,-28.8%,0.2282%,-
COCCn1cc2c(n1)C(CNCc1nccs1)OCC2.O=C(O)C(F)(F)F.O=C(O)C(F)(F)F (stereo not shown),-,-,-,-,13.37%
Cc1cc2cc(C(=O)N[C@@H]3CC[C@@H](N4CCOCC4)[C@@H]3O)ccc2o1,0.5405%,-1.421%,-,0.4593%,-4.42%
CCN(C(=O)CNc1cc(C)c(F)cc1C(N)=O)C1CC1,7.182%,-0.3276%,-65.74%,3.684%,5.817%
COCCN(Cc1ccsc1)C(=O)c1c(C)cc(C)[nH]c1=O,3.867%,-0.4914%,0.2531%,5.282%,9.762%
CC1CCN(c2ccnc3ccc(Br)cc23)CC1,12.07%,4.193%,-10.43%,5.342%,-1.983%
Cc1cc(C)n(CC2CCCN2C(=O)CCNc2ncccn2)n1 (stereo not shown),1.775%,-11.49%,-7.087%,-1.475%,-15.8%
CC1CCCCN1C(=O)COc1nc(C(C)(C)C)no1 (stereo not shown),8.995%,-2.77%,-13.77%,8.756%,-15.92%
COc1ccc(Cl)cc1CN(CC(N)=O)C(C)C,0.5525%,-4.806%,-34.56%,4.764%,4.016%
O=C(CN(C1=NCCCC1)c1ccccc1)c1ccc2c(c1)OCCO2,6.098%,0.6135%,2.136%,4.513%,-
CCc1cnc(NCc2ccccc2Cn2cccn2)nc1,3.093%,-0.854%,-27.43%,-0.3684%,-19.9%
COC(=O)c1ccc(N(C)C2CCC2)nn1,6.18%,-4.376%,-10.06%,6.199%,-29.1%
O=C(NC1CCN(c2ccccc2OC(F)F)C1)c1cccnc1 (stereo not shown),0%,4.687%,-1.197%,2.541%,-4.051%
O=S(=O)(CCO)Cc1ccc(OCC(F)(F)F)cc1,5.195%,0.516%,-34.08%,0.1567%,11.33%
CCNC(=O)NCc1cnn(-c2ccc(F)cc2F)c1,2.105%,-5.062%,-6.935%,3.201%,-1.136%
CCc1cc(C(=O)N2Cc3ccccc3OC3(CCOCC3)C2)on1,0.7463%,1.681%,12.3%,0.8372%,-23.21%
COc1ncc(C)cc1NC(=O)COCC(F)(F)F,17.17%,5.436%,25.35%,24.1%,6.785%
O=C(N1CCOCC1)N1CCN(c2ccc(Cl)nn2)C(=O)C1,7.692%,-4.581%,1.523%,0.3035%,1.365%
Cc1cccc(OC2CCN(c3ncc(C#N)cc3Cl)CC2)n1,2.062%,-1.644%,26.2%,2.191%,2.214%

The last 4 entries again:

structure	TcHisRS	MtTrpRS	Pks13 thioesterase	PfKRS1	Toxoplasma
CCc1cc(C(=O)N2Cc3ccccc3OC3(CCOCC3)C2)on1	0.7463%	1.681%	12.3%	0.8372%	-23.21%
COc1ncc(C)cc1NC(=O)COCC(F)(F)F	17.17%	5.436%	25.35%	24.1%	6.785%
O=C(N1CCOCC1)N1CCN(c2ccc(Cl)nn2)C(=O)C1	7.692%	-4.581%	1.523%	0.3035%	1.365%
Cc1cccc(OC2CCN(c3ncc(C#N)cc3Cl)CC2)n1	2.062%	-1.644%	26.2%	2.191%	2.214%